Reference: publication PMC10117376

The chains behind the UniProt entries cited, without tags or fusion partners.
UniProt Q16650: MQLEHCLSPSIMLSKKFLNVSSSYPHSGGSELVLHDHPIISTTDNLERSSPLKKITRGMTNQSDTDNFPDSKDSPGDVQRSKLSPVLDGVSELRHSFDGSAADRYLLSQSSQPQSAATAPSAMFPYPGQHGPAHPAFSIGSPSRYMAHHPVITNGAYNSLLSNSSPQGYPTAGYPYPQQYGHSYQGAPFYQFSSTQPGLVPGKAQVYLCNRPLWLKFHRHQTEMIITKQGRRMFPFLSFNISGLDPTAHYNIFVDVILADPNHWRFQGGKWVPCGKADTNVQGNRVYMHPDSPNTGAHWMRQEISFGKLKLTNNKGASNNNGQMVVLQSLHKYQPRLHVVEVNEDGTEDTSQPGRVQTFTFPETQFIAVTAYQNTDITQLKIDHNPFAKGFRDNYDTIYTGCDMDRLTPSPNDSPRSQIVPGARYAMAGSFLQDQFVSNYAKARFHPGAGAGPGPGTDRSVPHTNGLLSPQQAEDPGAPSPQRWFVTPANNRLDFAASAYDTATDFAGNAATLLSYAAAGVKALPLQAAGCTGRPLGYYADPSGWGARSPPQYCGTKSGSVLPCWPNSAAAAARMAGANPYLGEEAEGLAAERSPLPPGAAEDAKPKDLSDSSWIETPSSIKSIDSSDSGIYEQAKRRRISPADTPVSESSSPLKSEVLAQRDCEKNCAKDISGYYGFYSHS

Molecular target: 2×FLAG/V5-TBR1 (human) (UniProt Q16650)
Experiment: affinity purification with mass spectrometry; nuclear extract of HEK293 cells stably expressing 2xFLAG/V5-TBR1 on anti-FLAG M2 agarose beads, 3 h at 4°C, buffer C-100 (20 mM HEPES pH 7.6, 20% glycerol, 100 mM KCl, 1.5 mM MgCl2, 0.2 mM EDTA) with benzonase and ethidium bromide; eluted with FLAG-tripeptide; two independent purifications (AP1, AP2); untransfected cells as control

B1: ZMYM2 (endogenous) (protein, UniProt Q9UBW7 1-1377)
chain: MDTSSVGGLELTDQTPVLLGSTAMATSLTNVGNSFSGPANPLVSRSNKFQNSSVEDDDDVVFIEPVQPPPPSVPVVADQRTITFTSSKNEELQGNDSKITPSSKELASQKGSVSETIVIDDEEDMETNQGQEKNSSNFIERRPPETKNRTNDVDFSTSSFSRSKVNAGMGNSGITTEPDSEIQIANVTTLETGVSSVNDGQLENTDGRDMNLMITHVTSLQNTNLGDVSNGLQSSNFGVNIQTYTPSLTSQTKTGVGPFNPGRMNVAGDVFQNGESATHHNPDSWISQSASFPRNQKQPGVDSLSPVASLPKQIFQPSVQQQPTKPVKVTCANCKKPLQKGQTAYQRKGSAHLFCSTTCLSSFSHKPAPKKLCVMCKKDITTMKGTIVAQVDSSESFQEFCSTSCLSLYEDKQNPTKGALNKSRCTICGKLTEIRHEVSFKNMTHKLCSDHCFNRYRMANGLIMNCCEQCGEYLPSKGAGNNVLVIDGQQKRFCCQSCVSEYKQVGSHPSFLKEVRDHMQDSFLMQPEKYGKLTTCTGCRTQCRFFDMTQCIGPNGYMEPYCSTACMNSHKTKYAKSQSLGIICHFCKRNSLPQYQATMPDGKLYNFCNSSCVAKFQALSMQSSPNGQFVAPSDIQLKCNYCKNSFCSKPEILEWENKVHQFCSKTCSDDYKKLHCIVTYCEYCQEEKTLHETVNFSGVKRPFCSEGCKLLYKQDFARRLGLRCVTCNYCSQLCKKGATKELDGVVRDFCSEDCCKKFQDWYYKAARCDCCKSQGTLKERVQWRGEMKHFCDQHCLLRFYCQQNEPNMTTQKGPENLHYDQGCQTSRTKMTGSAPPPSPTPNKEMKNKAVLCKPLTMTKATYCKPHMQTKSCQTDDTWRTEYVPVPIPVPVYIPVPMHMYSQNIPVPTTVPVPVPVPVFLPAPLDSSEKIPAAIEELKSKVSSDALDTELLTMTDMMSEDEGKTETTNINSVIIETDIIGSDLLKNSDPETQSSMPDVPYEPDLDIEIDFPRAAEELDMENEFLLPPVFGEEYEEQPRPRSKKKGAKRKAVSGYQSHDDSSDNSECSFPFKYTYGVNAWKHWVKTRQLDEDLLVLDELKSSKSVKLKEDLLSHTTAELNYGLAHFVNEIRRPNGENYAPDSIYYLCLGIQEYLCGSNRKDNIFIDPGYQTFEQELNKILRSWQPSILPDGSIFSRVEEDYLWRIKQLGSHSPVALLNTLFYFNTKYFGLKTVEQHLRLSFGTVFRHWKKNPLTMENKACLRYQVSSLCGTDNEDKITTGKRKHEDDEPVFEQIENTANPSRCPVKMFECYLSKSPQNLNQRMDVFYLQPECSSSTDSPVWYTSTSLDRNTLENMLVRVLLVKDIYDKDNYELDEDTD
binding: binds

These are yes or no findings as the source states them, for the method shown. In cells and extracts the contact can be indirect. A yes stands for co-enrichment or nearness to the bait. Other partners may have been found.
